These are yes or no findings as the source states them, for the method shown. Binding seen in cells or lysates may run through a third protein. A yes stands for co-enrichment or nearness to the bait. Other partners may have been found. No binding means not detected with the bait.
Columns and labels:
Test in all cases: proximity labelling; SHP2-TurboID variants against a TurboID-only control in SHP2 knock-out HEK 293 cells; exogenous biotin; biotinylated proteins enriched and identified by mass spectrometry; hits p<0.05 and log2 fold-change >1; cells unstimulated or stimulated with 100 ng/mL EGF; SHP2^WT also after 4 hours with 1 uM TNO155
SHP2^WT-TurboID = SHP2^WT-TurboID (UniProt Q06124)
SHP2^E139D-TurboID = SHP2^E139D-TurboID (UniProt Q06124)
SHP2^E76K-TurboID = SHP2^E76K-TurboID (UniProt Q06124)
SHP2^Q510E-TurboID = SHP2^Q510E-TurboID (UniProt Q06124)
SHP2^Q510K-TurboID = SHP2^Q510K-TurboID (UniProt Q06124)
SHP2^R138Q-TurboID = SHP2^R138Q-TurboID (UniProt Q06124)
SHP2^T42A-TurboID = SHP2^T42A-TurboID (UniProt Q06124)
SHP2^T468M-TurboID = SHP2^T468M-TurboID (UniProt Q06124)
SHP2^T507K-TurboID = SHP2^T507K-TurboID (UniProt Q06124)
SHP2^T52S-TurboID = SHP2^T52S-TurboID (UniProt Q06124)
SHP2^Y279C-TurboID = SHP2^Y279C-TurboID (UniProt Q06124)

By UniProt entry, the sequences of proteins in these tests, tags left out. Residues count along the entry.
UniProt Q15388: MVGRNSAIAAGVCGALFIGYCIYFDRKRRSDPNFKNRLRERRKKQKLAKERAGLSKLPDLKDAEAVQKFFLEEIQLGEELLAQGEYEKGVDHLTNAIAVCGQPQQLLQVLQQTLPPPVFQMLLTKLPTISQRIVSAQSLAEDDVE
UniProt P38646, residues 47-679: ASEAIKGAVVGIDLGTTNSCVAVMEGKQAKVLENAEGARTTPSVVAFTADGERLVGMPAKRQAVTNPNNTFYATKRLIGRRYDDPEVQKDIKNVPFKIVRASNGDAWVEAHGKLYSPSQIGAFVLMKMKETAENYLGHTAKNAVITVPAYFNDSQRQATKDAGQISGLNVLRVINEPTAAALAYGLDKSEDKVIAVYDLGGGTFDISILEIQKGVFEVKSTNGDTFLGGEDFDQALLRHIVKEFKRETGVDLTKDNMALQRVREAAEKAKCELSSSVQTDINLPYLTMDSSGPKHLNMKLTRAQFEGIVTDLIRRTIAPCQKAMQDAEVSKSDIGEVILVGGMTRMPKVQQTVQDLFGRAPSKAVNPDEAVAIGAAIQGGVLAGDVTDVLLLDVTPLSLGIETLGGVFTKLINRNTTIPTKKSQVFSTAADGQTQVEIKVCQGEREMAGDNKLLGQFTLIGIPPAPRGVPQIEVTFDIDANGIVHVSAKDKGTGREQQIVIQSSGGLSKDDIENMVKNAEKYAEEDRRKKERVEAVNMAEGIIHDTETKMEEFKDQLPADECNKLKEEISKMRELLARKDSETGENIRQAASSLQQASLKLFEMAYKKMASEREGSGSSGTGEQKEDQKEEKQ

Row | Substance | binding (SHP2^WT-TurboID) | binding (SHP2^E139D-TurboID) | binding (SHP2^E76K-TurboID) | binding (SHP2^Q510E-TurboID) | binding (SHP2^Q510K-TurboID) | binding (SHP2^R138Q-TurboID) | binding (SHP2^T42A-TurboID) | binding (SHP2^T468M-TurboID) | binding (SHP2^T507K-TurboID) | binding (SHP2^T52S-TurboID) | binding (SHP2^Y279C-TurboID)
1 | PI3KR2 (from UniProt O00459 1-728) | binds |  |  |  |  |  |  |  |  |  | 
2 | Tom20 (from UniProt Q15388 1-145) | no binding |  |  |  |  |  |  |  |  |  | 
3 | mortalin (HSPA9) (from UniProt P38646 47-679) | no binding | no binding | no binding | no binding | no binding | no binding | no binding | no binding | no binding | no binding | no binding

From publication doi:10.1101/2025.02.26.640373
